From article doi:10.1101/473397 come the findings set out here.

Sequences of proteins named here, by UniProt entry; tags and fusion partners are left off.
UniProt O95863, whole entry: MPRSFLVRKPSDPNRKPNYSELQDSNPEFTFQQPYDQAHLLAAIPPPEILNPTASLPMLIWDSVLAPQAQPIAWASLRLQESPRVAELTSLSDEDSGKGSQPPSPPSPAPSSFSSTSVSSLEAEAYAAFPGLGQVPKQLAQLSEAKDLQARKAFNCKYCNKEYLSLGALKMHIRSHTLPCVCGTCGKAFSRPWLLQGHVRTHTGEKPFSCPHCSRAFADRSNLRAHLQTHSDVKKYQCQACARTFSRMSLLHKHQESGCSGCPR

Assay [1] concerns the target T1, HA-tagged E3 ligase FBX011 (UniProt Q86XK2).
T1 sequence: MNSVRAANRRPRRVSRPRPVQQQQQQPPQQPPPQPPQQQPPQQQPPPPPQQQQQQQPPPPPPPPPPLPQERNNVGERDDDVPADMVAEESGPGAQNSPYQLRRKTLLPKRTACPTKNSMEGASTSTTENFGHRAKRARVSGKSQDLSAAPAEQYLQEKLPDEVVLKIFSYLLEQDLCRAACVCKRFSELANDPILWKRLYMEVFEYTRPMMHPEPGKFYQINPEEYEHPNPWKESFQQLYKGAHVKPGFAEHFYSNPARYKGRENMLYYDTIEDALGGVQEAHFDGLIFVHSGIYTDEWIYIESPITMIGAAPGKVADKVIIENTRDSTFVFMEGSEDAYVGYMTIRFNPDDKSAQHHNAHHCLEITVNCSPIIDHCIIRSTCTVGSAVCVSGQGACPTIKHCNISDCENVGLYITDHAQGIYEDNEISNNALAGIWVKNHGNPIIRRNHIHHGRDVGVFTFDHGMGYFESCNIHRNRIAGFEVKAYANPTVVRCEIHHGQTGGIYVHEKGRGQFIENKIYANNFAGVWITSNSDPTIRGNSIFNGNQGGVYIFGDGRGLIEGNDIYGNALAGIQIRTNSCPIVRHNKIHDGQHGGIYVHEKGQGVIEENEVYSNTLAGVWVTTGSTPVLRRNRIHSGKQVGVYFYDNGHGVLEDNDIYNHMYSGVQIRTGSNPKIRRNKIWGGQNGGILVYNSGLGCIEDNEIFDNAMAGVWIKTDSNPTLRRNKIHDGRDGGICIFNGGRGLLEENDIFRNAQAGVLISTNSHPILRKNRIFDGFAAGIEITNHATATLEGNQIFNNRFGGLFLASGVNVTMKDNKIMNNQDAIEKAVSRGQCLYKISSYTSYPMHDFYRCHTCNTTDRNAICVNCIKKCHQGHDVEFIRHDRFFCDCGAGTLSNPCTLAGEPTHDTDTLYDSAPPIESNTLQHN
Briefly: co-IP.

Assay [2] addresses T2, FLAG-tagged full length NDRG2 (N-Myc downstream-regulated gene 2) (UniProt Q9UN36).
T2 sequence: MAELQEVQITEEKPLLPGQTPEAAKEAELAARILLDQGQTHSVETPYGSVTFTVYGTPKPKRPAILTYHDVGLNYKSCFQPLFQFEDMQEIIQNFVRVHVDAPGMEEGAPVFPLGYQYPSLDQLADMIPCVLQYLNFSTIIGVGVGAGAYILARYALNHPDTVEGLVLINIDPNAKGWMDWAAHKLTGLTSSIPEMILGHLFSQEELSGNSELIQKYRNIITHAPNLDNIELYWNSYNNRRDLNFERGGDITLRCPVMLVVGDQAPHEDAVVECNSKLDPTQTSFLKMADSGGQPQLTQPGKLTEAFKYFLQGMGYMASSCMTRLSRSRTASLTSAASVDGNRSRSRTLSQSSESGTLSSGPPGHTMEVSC
Nature of the assay: co-IP.

No constants are given. Whether binding was seen depends on the method and setting. In cells and extracts the contact can be indirect. Some results given as binding are weak or reduced against the parent protein; the word gives no strength. Where a sequence is shown, tags or fusion partners need not be part of it.

For “Myc-tagged Snail (from UniProt O95863 1-264)”, the binding entry in assay [1] is “binds”.

B1: HA-tagged E3 ligase FBX011 (protein, UniProt Q86XK2 1-927)
chain: T1 sequence
Turning to B1, in assay [2], the binding entry is listed as “binds”.
